Data as given in PubChem BioAssay AID2685 (National Center for Advancing Translational Sciences (NCATS), 2010).
Hit rate of the full screen: of about 320,000 compounds, about 2,100 (0.66%) were called active. Inconclusive means that the source gave no clear call. Such entries were picked first, then a sample of the others. Calls come from the whole dose curve; as a rule, active = well fitted inhibition curve with a large enough effect in the signal ratio, with a control signal flat (not every such curve was filed as active); inconclusive = small, poorly fitted or top-dose-only effect, or effect the other way, or a change in a side signal; inactive = flat fitted curve, though single readings scatter; the % refers to the signal ratio. Potencies beside an inconclusive call are fits to weak or partial responses and may not hold up.

Test: qHTS Assay for Lipid Storage Modulators in Drosophila S3 Cells
Conditions: BODIPY lipid droplet fluorescence, 18-24 h, cells fed with added oleic acid; lipid storage change, negative = inhibition: at 46.1 µM (top of the series) unless noted
Procedure, shortened: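 Drosophila S3 cells got compounds at several concentrations plus oleic acid (400 uM solution). Laser-scanning cytometry with 488 nm excitation read lipid droplets at 500-530 nm and cells at 575-640 nm. Percent activity was relative to 20 uM Triacsin C.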
% is set by controls: 0 for no effect and ±100 for the full control effect; potency is the fitted concentration of half-maximal effect.

| Structure (SMILES) | lipid storage change, negative = inhibition | Potency |
| --- | --- | --- |
| CCOC(=O)C(NCCCCl)c1ccccc1 (stereo not given) | inconclusive: 33.9% | – |
| COc1cccc(C2c3[nH]c4ccccc4c3C[C@H]3C(=O)N(c4ccccc4C(=O)N4CCCC4C(=O)O)C(=O)N23)c1 (stereo not given in full) | inconclusive: 13.4% | – |
| CC(C)(C)OC(=O)NCCCCCO | inactive | – |
| CCCCc1ccc(NC(=O)CC(C)(C)C)cc1 | inconclusive: -7.73% | – |
| CC(C)COC(=O)COc1cc(Cl)c(Cl)cc1Cl | inconclusive: 5.5% | – |
| CCCCn1c(N)c(N(CC(C)C)C(=O)C2CCCN(C(=O)c3ccc(Cl)cc3)C2)c(=O)[nH]c1=O (stereo not given) | inconclusive: -23.5% | – |
| COc1ccc(NC(=O)CN2C(=O)CC(C)S(=O)(=O)c3ccccc32)cc1 (stereo not given) | inactive | – |
| CC(C)n1nc(C(=O)OCC(=O)N2CC(=O)Nc3ccccc32)c2ccccc2c1=O | inconclusive: -36.7% | – |
| CCOC(=O)C1=C(C)C2C3C(=O)N(c4ccc(C)cc4C)C(=O)C3C1(C)C1C(=O)N(c3ccc(C)cc3C)C(=O)C21 (stereo not given) | inconclusive: -3.39% | – |
| O=C(CC1S/C(=N/N=C2CCCCCC2)NC1=O)Nc1ccccc1F (stereo not given) | – | inconclusive: 0.58 µM [activator, single point] |
| CN1C(=O)C(C)(C)c2cc(S(=O)(=O)N3CCC(C(=O)NCc4ccc(Cl)cc4)CC3)ccc21 | inconclusive: -60.8% | – |
| CCCOc1ccc(/C=N/NC(=S)Nc2ccccc2[N+](=O)[O-])c(O)c1 | – | inconclusive: 2.59 µM [activator, full curve] |
| CN(C)S(=O)(=O)c1cccc(C(=O)Nc2ccc3c(c2)CCC3)c1 | inconclusive: -74.7% | – |
| Cc1nnsc1NC(=O)OCC(C)(C)C | inconclusive: 14.3% | – |
| O=C1CCC(C(=O)N2CCC(CO)CC2)CN1Cc1ccc(Cl)cc1 (stereo not given) | inconclusive: 25.1% | – |
| Cc1c(Cl)cccc1-n1c(SCC(=O)N2CCC(C(=O)O)CC2)nc2ccccc2c1=O | inconclusive: 21.4% | – |
| CCOC(=O)COc1ccc(C2NC(C(=O)O)CS2)cc1 (stereo not given) | – | inconclusive: 29.1 µM [cytotoxic, single point] |
| CCOC(=O)c1ccc(N2C(=O)CC(N3CC(C)OC(C)C3)C2=O)cc1 (stereo not given) | inconclusive: -52.8% | – |
| COCCOc1ccc(C(F)(F)F)cc1NC(=O)CN1C(=O)NC(C)(c2ccc3c(c2)OCO3)C1=O (stereo not given) | inconclusive: 5.88% | – |
| COc1ccccc1C1C(C(=O)c2sc(C)nc2C)=C(O)C(=O)N1CCN1CCOCC1 (stereo not given) | inconclusive: -41.2% | – |
| CNC(=O)CN(c1cc(C)ccc1C)S(C)(=O)=O | inconclusive: -45.1% | – |
| Cc1nc(C)c(NC(=O)N2CCc3ccccc32)cc1NC(=O)N1CCc2ccccc21 | inconclusive: 96.3% | – |
| CCSC1=NC(=O)/C(=C2/C=Cc3ccccc3N2CC)S1 | – | inconclusive: 29.1 µM [cytotoxic, single point] |
| CC12CCC(=O)N1C(C(=O)Nc1ccc(F)c(F)c1F)CS2 (stereo not given) | inconclusive: -9.03% | – |
| O=C(COC(=O)c1cc([N+](=O)[O-])ccc1NCc1ccccc1Cl)NCC(F)(F)F | – | inconclusive: 11.6 µM [falling, partial curve, poor fit] |

| Structure (SMILES) | lipid storage change, negative = inhibition | Potency |
| --- | --- | --- |
| Cc1cc(=O)n(CCO)c(O)c1C#N | inconclusive: -77.9% | – |
| Cn1nc([N+](=O)[O-])nc1Oc1ccccc1N | inconclusive: -31.1% | – |
| COc1ccc(S(=O)Cc2ccc(C(=O)N3CCN(C(=O)c4ccco4)CC3)o2)cc1 (stereo not given) | – | inconclusive: 29.1 µM [cytotoxic, single point] |
| CC(C)(C)NC(=O)COC(=O)c1ccc(F)cc1Cl | inconclusive: -6.48% | – |
| O=C(O)CP(=O)(c1ccccc1)c1ccccc1 | – | inconclusive: 2.31 µM [falling, full curve] |
| CC12CCC(=O)N1C(C(=O)Nc1nnc(SCc3ccccc3)s1)CS2 (stereo not given) | – | inconclusive: 0.092 µM [falling, full curve, poor fit] |
| O=C(NC1CCCC1)c1cccc(S(=O)(=O)N2CCCCC2)c1 | – | inconclusive: 0.0326 µM [falling, full curve, poor fit] |
| Cc1ccccc1NCC(=O)N/N=C/c1c(C)c(C(=O)c2ccc(Cl)cc2)n2ccccc12 | inconclusive: -30% | – |
| Cc1ccc(CN(CC(=O)NC2CCCCC2)C(=O)c2csnn2)cc1 | – | inconclusive: 3.26 µM [activator, partial curve] |
| CC1(C)CC(=O)C2=C(C1)Nc1ncnn1C2c1cccs1 (stereo not given) | – | inconclusive: 0.82 µM [falling, single point] |
| CCOC(=O)C1C(=O)NC(N2CCCCC2)=NC1c1ccco1 (stereo not given) | inconclusive: -15.2% | – |
| Cc1c(NC(=O)C(C)OC(=O)CCc2c[nH]c3ccccc23)c(=O)n(-c2ccccc2)n1C (stereo not given) | inconclusive: 15% | – |
| Cc1c(C(=O)NC2CCCCC2)oc2ccc(F)cc12 | inconclusive: 171% | – |
| Cc1cc(C)c(C(=O)NC2CCCc3c2cnn3-c2ccc(C)c(C)c2)c(=O)[nH]1 (stereo not given) | – | inconclusive: 32.6 µM [falling, single point] |
| COc1ccc(Nc2nc(-c3cccs3)nc3ccccc23)c(OC)c1 | inconclusive: -16.5% | – |
| COc1ccc(C(=O)Oc2ccc(/C=N/Nc3ccc(Cl)c(C(=O)O)c3)cc2OC)cc1 | – | inconclusive: 7.31 µM [activator, partial curve] |
| Cc1nn(Cc2ccccc2)c(C)c1NC(=O)c1noc2c1CCc1ccccc1-2 | inconclusive: 78.6% | – |
| COc1cc(O)oc1C=Nc1ccc(Cl)cc1 | inconclusive: -7.43% | – |
| COc1ccc(CCNC(=O)c2ccccc2NC(=O)c2ccco2)cc1OC | inconclusive: -17.2% | – |
| CCCCCCCc1c(O)nc(SCCN(C)C)[nH]c1=O | inconclusive: 8.21% | – |
| COc1ccccc1NC(=O)CCc1nc(-c2cccs2)no1 | inconclusive: 1.25% | – |
| O=C(c1ccccc1)N1CCN(C2CCCCC2)CC1 | inactive | – |
| COCCN(Cc1ccccc1)C(=O)c1cc(-c2ccc(OC)c(OC)c2)nc2ccccc12 | inconclusive: -48.9% | – |
| COc1cc(O)c(C(CCN2CCOCC2)c2cc(OC)c(OC)c(OC)c2)c(OC)c1 (stereo not given) | inconclusive: 12.9% | – |
| Cc1[nH]c(=O)[nH]c(=O)c1S(=O)(=O)N1c2ccc(F)cc2CCC1C (stereo not given) | – | inconclusive: 18.4 µM [falling, single point] |

| Structure (SMILES) | lipid storage change, negative = inhibition | Potency |
| --- | --- | --- |
| O=C1OCC(CO)(CO)N=C1NNc1ccc(Cl)c(Cl)c1 | inconclusive: -6.95% | – |
| CCOC(=O)C1CCN(C(=S)Nc2ccc(Cl)cc2C)CC1 | inconclusive: 41.3% | – |
| O=C(NNc1ccccn1)c1ccc(Cl)nc1 | inconclusive: 23.8% | – |
| CCOC(=O)C1CCN(S(=O)(=O)c2ccc3oc(=O)ccc3c2)CC1 | inconclusive: 58.9% | – |
| COc1ccc(OC)c(S(=O)(=O)NCCCN2CCCC2=O)c1 | – | inconclusive: 29.1 µM [activator, single point] |
| O=C(NN(c1ccccc1)c1ccccc1)c1ccccc1F | – | inconclusive: 0.103 µM [falling, partial curve, poor fit] |
| COc1ccc(N2CC(C(=O)N[C@@H](C)C(=O)N3CCCCC3)CC2=O)cc1 (stereo not given in full) | inconclusive: 17.5% | – |
| CCOC(=O)N1CCN(Cc2cn[nH]c2-c2cccc3ccccc23)CC1 | – | inconclusive: 29.1 µM [activator, single point] |
| C=CCOC(=O)C1=C(C)NC(C)=C(C(=O)OCC=C)C1c1ccco1 | inconclusive: 21% | – |
| O=C(NCCO)c1c(O)c2cccc3c2n(c1=O)CC3 | – | inconclusive: 1.46 µM [activator, partial curve] |
| CC(=O)Nc1ccc(O)c(-c2nc3ccccc3s2)c1 | inconclusive: -8.05% | – |
| COc1ccc(/C=C/C(=O)c2c(C)nc3ccccn23)cc1 | – | inconclusive: 14.6 µM [falling, partial curve, poor fit] |
| COc1ccc(CCC(=O)Nc2ccc(S(=O)(=O)Nc3nccc(C)n3)cc2)cc1 | – | inconclusive: 29.1 µM [activator, single point] |
| Cc1cc(Cl)ccc1OCC(=O)OCC(=O)Nc1ccc(F)c([N+](=O)[O-])c1 | inconclusive: -3.8% | – |
| CC(=O)CSc1ncnc2nc[nH]c12 | inactive | – |
| CCn1c(SCC(=O)NNC(=O)c2ccc(C)cc2)nnc1C1CC1 | – | inconclusive: 0.731 µM [activator, single point] |
| COc1ccc(-c2c(O)c(C#N)c(-c3ccccc3)n(-c3ccc(OC)cc3)c2=O)cc1 | – | inconclusive: 29.1 µM [falling, single point] |
| COc1cccc(CNC(=O)c2ccc(N3CCOCC3)c([N+](=O)[O-])c2)c1 | – | inconclusive: 20.6 µM [falling, single point] |
| CC(=O)N1CCCc2cc(S(=O)(=O)NC(C(=O)NC3CCCCC3)C(C)C)ccc21 (stereo not given) | inactive | – |
| CCN1CCN(S(=O)(=O)c2ccc(C(=O)Nc3sc4c(c3C(N)=O)CCN(CC)C4)cc2)CC1 | – | inconclusive: 0.291 µM [activator, full curve, poor fit] |
| Cc1nc(C(=O)N(C)C)nn1-c1ccc([N+](=O)[O-])cc1 | inconclusive: -22.8% | – |
| Cc1ccc(C(=O)C(C)OC(=O)CCS(=O)(=O)c2ccc(C)cc2)cc1 (stereo not given) | inconclusive: -40.4% | – |
| Cc1cc(C)cc(NC(=O)C(OC(=O)c2ccc(O)cc2)c2ccccc2)c1 (stereo not given) | inconclusive: 18.4% | – |
| CCN1CCN(C(=O)C2CCCN(S(=O)(=O)c3ccc(OC)c(OC)c3)C2)CC1 (stereo not given) | – | inconclusive: 29.1 µM [activator, single point] |
| CSCCC(=O)Nc1cc(S(=O)(=O)N2CCOCC2)ccc1N1CCN(C)CC1 | inconclusive: 0.0801% | – |

16 compounds already listed, sorted by SMILES length, smallest number first.

| Structure (SMILES) | lipid storage change, negative = inhibition | Potency |
| --- | --- | --- |
| CC(=O)CSc1ncnc2nc[nH]c12 | inactive | – |
| O=C(NNc1ccccn1)c1ccc(Cl)nc1 | inconclusive: 23.8% | – |
| CC(=O)Nc1ccc(O)c(-c2nc3ccccc3s2)c1 | inconclusive: -8.05% | – |
| CCOC(=O)C1CCN(C(=S)Nc2ccc(Cl)cc2C)CC1 | inconclusive: 41.3% | – |
| COc1ccc(/C=C/C(=O)c2c(C)nc3ccccn23)cc1 | – | inconclusive: 14.6 µM [falling, partial curve, poor fit] |
| CCn1c(SCC(=O)NNC(=O)c2ccc(C)cc2)nnc1C1CC1 | – | inconclusive: 0.731 µM [activator, single point] |
| Cc1nc(C(=O)N(C)C)nn1-c1ccc([N+](=O)[O-])cc1 | inconclusive: -22.8% | – |
| CCOC(=O)N1CCN(Cc2cn[nH]c2-c2cccc3ccccc23)CC1 | – | inconclusive: 29.1 µM [activator, single point] |
| C=CCOC(=O)C1=C(C)NC(C)=C(C(=O)OCC=C)C1c1ccco1 | inconclusive: 21% | – |
| CSCCC(=O)Nc1cc(S(=O)(=O)N2CCOCC2)ccc1N1CCN(C)CC1 | inconclusive: 0.0801% | – |
| COc1ccc(N2CC(C(=O)N[C@@H](C)C(=O)N3CCCCC3)CC2=O)cc1 (stereo not given in full) | inconclusive: 17.5% | – |
| CCN1CCN(C(=O)C2CCCN(S(=O)(=O)c3ccc(OC)c(OC)c3)C2)CC1 (stereo not given) | – | inconclusive: 29.1 µM [activator, single point] |
| Cc1cc(Cl)ccc1OCC(=O)OCC(=O)Nc1ccc(F)c([N+](=O)[O-])c1 | inconclusive: -3.8% | – |
| CC(=O)N1CCCc2cc(S(=O)(=O)NC(C(=O)NC3CCCCC3)C(C)C)ccc21 (stereo not given) | inactive | – |
| COc1ccc(-c2c(O)c(C#N)c(-c3ccccc3)n(-c3ccc(OC)cc3)c2=O)cc1 | – | inconclusive: 29.1 µM [falling, single point] |
| CCN1CCN(S(=O)(=O)c2ccc(C(=O)Nc3sc4c(c3C(N)=O)CCN(CC)C4)cc2)CC1 | – | inconclusive: 0.291 µM [activator, full curve, poor fit] |
